Measured data: PubChem BioAssay AID1224826 (NIAID, 2016)

Test: 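Genes that change LPS-induced Tnf promoter activity in mouse macrophages when knocked down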 (primary screen)
Cell system: RAW264.7 G9 macrophages from mouse bearing reporters for p65 (GFP) and the Tnf promoter (mCherry)
Reagents: siRNA pool against mouse genes, 100 nM
Time to read-out: 16 h of LPS stimulation, after 2 days of siRNA transfection
Treatment: bacterial lipopolysaccharide (Salmonella minnesota R595), 10 ng/ml
Measured: 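Imaged Tnf reporter mCherry in nuclei, minus background, normalised per plate to the median and expressed as robust z-scores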
Direction: Tnf reporter robust z-score: higher = stronger Tnf promoter reporter signal after LPS
Rule for the call: 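Called active when robust z-score is at most -1.3, matching the median of the Tlr4 knock-down control, or over 3; control wells and wells with under 50 cells never active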
Calls: active = Tnf reporter clearly lowered or raised; inactive = no clear change in Tnf reporter
Here is a random part of about 17,000 deposited reagents. Of all reagents, about 1,110 (6.6%) were called active. 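Active means lowered or raised reporter signal; replicate intensities are raw and not normalised per plate.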 Further read-outs or replicates are left out here.

Mx2 (MX dynamin-like GTPase 2) → Tnf reporter robust z-score: -0.02; fewer than 50 cells in well: enough cells in well; outcome: inactive
Dctn4 (dynactin 4) → Tnf reporter robust z-score: -0.91; fewer than 50 cells in well: enough cells in well; outcome: inactive
Alox15 (arachidonate 15-lipoxygenase) → Tnf reporter robust z-score: 0.59; fewer than 50 cells in well: enough cells in well; outcome: inactive
Vps26b (VPS26 retromer complex component B) → Tnf reporter robust z-score: -0.14; fewer than 50 cells in well: enough cells in well; outcome: inactive
Rps9 (ribosomal protein S9) → Tnf reporter robust z-score: -0.87; fewer than 50 cells in well: enough cells in well; outcome: inactive
Nipsnap1 (nipsnap homolog 1) → Tnf reporter robust z-score: 2.71; fewer than 50 cells in well: enough cells in well; outcome: inactive
Aaas (achalasia, adrenocortical insufficiency, alacrimia) → Tnf reporter robust z-score: 0.39; fewer than 50 cells in well: enough cells in well; outcome: inactive
Hif3a (hypoxia inducible factor 3, alpha subunit) → Tnf reporter robust z-score: -0.63; fewer than 50 cells in well: enough cells in well; outcome: inactive
Lgr5 (leucine rich repeat containing G protein coupled receptor 5) → Tnf reporter robust z-score: 0.14; fewer than 50 cells in well: enough cells in well; outcome: inactive
Pafah1b3 → Tnf reporter robust z-score: -0.39; fewer than 50 cells in well: enough cells in well; outcome: inactive
Mydgf (myeloid derived growth factor) → Tnf reporter robust z-score: 1.5; fewer than 50 cells in well: enough cells in well; outcome: inactive
Ntsr1 (neurotensin receptor 1) → Tnf reporter robust z-score: 1.71; fewer than 50 cells in well: enough cells in well; outcome: inactive
Leap2 (liver-expressed antimicrobial peptide 2) → Tnf reporter robust z-score: 0.49; fewer than 50 cells in well: enough cells in well; outcome: inactive
Plekha7 (pleckstrin homology domain containing A7) → Tnf reporter robust z-score: 1.52; fewer than 50 cells in well: enough cells in well; outcome: inactive
Crisp1 (cysteine-rich secretory protein 1) → Tnf reporter robust z-score: -1.42; fewer than 50 cells in well: enough cells in well; outcome: active
E030024N20Rik (RIKEN cDNA E030024N20 gene) → Tnf reporter robust z-score: 1.91; fewer than 50 cells in well: enough cells in well; outcome: inactive
H2-D1 (histocompatibility 2, D region locus 1) → Tnf reporter robust z-score: 0.08; fewer than 50 cells in well: enough cells in well; outcome: inactive
Dmpk (dystrophia myotonica-protein kinase) → Tnf reporter robust z-score: 1.69; fewer than 50 cells in well: enough cells in well; outcome: inactive
Ect2 (epithelial cell transforming 2) → Tnf reporter robust z-score: -0.39; fewer than 50 cells in well: enough cells in well; outcome: inactive
BC043934 (cDNA sequence BC043934) → Tnf reporter robust z-score: 0.12; fewer than 50 cells in well: enough cells in well; outcome: inactive
Smarca4 → Tnf reporter robust z-score: 0.27; fewer than 50 cells in well: enough cells in well; outcome: inactive
Ptger3 (prostaglandin E receptor 3 (subtype EP3)) → Tnf reporter robust z-score: -0.92; fewer than 50 cells in well: enough cells in well; outcome: inactive
Pla2g12b (phospholipase A2, group XIIB) → Tnf reporter robust z-score: 0.63; fewer than 50 cells in well: enough cells in well; outcome: inactive
Vamp2 (vesicle-associated membrane protein 2) → Tnf reporter robust z-score: 1.98; fewer than 50 cells in well: enough cells in well; outcome: inactive
Atp5mk (ATP synthase membrane subunit k) → Tnf reporter robust z-score: 0.59; fewer than 50 cells in well: enough cells in well; outcome: inactive
Zfp113 (zinc finger protein 113) → fewer than 50 cells in well: fewer than 50 cells per well; well left out of calls; outcome: inactive
Padi3 (peptidyl arginine deiminase, type III) → fewer than 50 cells in well: fewer than 50 cells per well; well left out of calls; outcome: inactive

3 neighbouring reagents from above, for reference:
Pla2g12b (phospholipase A2, group XIIB) → Tnf reporter robust z-score: 0.63; fewer than 50 cells in well: enough cells in well; outcome: inactive
Vamp2 (vesicle-associated membrane protein 2) → Tnf reporter robust z-score: 1.98; fewer than 50 cells in well: enough cells in well; outcome: inactive
Atp5mk (ATP synthase membrane subunit k) → Tnf reporter robust z-score: 0.59; fewer than 50 cells in well: enough cells in well; outcome: inactive
